Test results as given in PubChem BioAssay AID2685 (National Center for Advancing Translational Sciences (NCATS), 2010).
Some of the results follow. The main result of the screen is listed elsewhere. These columns were measured beside it and carry no call. Most of these compounds were active or inconclusive in the main read-out, so they are no random draw. Potencies come from curve fits of mixed quality, noted in brackets.

Experiment: qHTS Assay for Lipid Storage Modulators in Drosophila S3 Cells;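 on cell number change: cells counted by Cell Tracker Red CMTPX staining in the red channel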
Conditions: BODIPY lipid droplet fluorescence, 18-24 h; for cell number change: measured here: cell count max response, cells fed with added oleic acid
Summary of the method: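 Drosophila S3 cells loaded with oleic acid (400 uM, as added) and compounds at several concentrations; lipid droplets imaged by 488-nm laser-scanning cytometry, 500–530 nm intensity and object ratio to cell channel. Percent activity normalized to 20 uM Triacsin C.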

[1] = measured here: lipid fluorescence (Fed channel) AC50, cells fed with added oleic acid
[2] = measured here: cell number channel AC50, cells fed with added oleic acid

Row | SMILES | cell number change | AC50 [1] | AC50 [2]
1 | COc1ccccc1NC(=O)CN(c1ccc(C23CC4CC(CC(C4)C2)C3)cc1)S(C)(=O)=O | 11.7% | 0.103 µM [falling, full curve, poor fit] | 
2 | COc1cc(=O)n(C)c2c(O)cccc12 | 0.265% | 0.0731 µM [falling, full curve, poor fit] | 
3 | CCOc1ccc(NC(=O)Cn2nnc(-c3ccccc3NC(=O)CC)n2)cc1 | -14.9% | 6.51 µM [rising, single point] | 
4 | Cc1onc(-c2ccccc2Cl)c1C(=O)N1CCC(Cc2ccccc2)CC1 | -23.6% | 29.1 µM [falling, single point] | 
5 | O=C(CSc1nnc(-c2ccco2)o1)Nc1cccc([N+](=O)[O-])c1 | -12.3% | 0.112 µM [falling, full curve, poor fit] | 
6 | Cc1cccc(C)c1NC(=O)COn1nnc2ccc(C(F)(F)F)cc21 | 22.5% | 2.59 µM [rising, partial curve, poor fit] | 
7 | Cc1c(OCc2ccccc2)c(=O)ccn1Cc1ccc(F)cc1 | 14% |  | 
8 | CCn1nc(C)cc1-c1n[nH]c(=S)n1N | 21.9% | 3.26 µM [falling, partial curve] | 
9 | O=C(O)c1cccnc1Sc1ccc(Cl)cc1 | -33.7% | 4.61 µM [falling, full curve, poor fit] | 4.61 µM [falling, full curve]
10 | Cc1ccc(S(=O)(=O)N2CCCCC2)cc1NS(=O)(=O)c1ccc(Cl)c(C(=O)O)c1 | -15% |  | 
11 | CC1CN(C(=O)CCC(=O)NCc2ccccn2)c2ccccc2O1 (stereo not given) | -8.07% | 4.61 µM [rising, single point] | 
12 | O=C(NCc1ccccn1)C(=O)N/N=C/c1ccccc1O | -22.2% | 29.1 µM [falling, single point] | 
13 | O=S(=O)(NCc1ccc2c(c1)OCO2)c1cnc[nH]1 | 0.506% |  | 
14 | O=C(c1ccc2c(c1)OCO2)N(c1ccc(Cl)cc1)C1C=CS(=O)(=O)C1 (stereo not given) | 6.88% |  | 
15 | Cc1cccc(C(=O)Nc2cccc(C(=O)N/N=C/c3ccncc3)c2)c1 | 8.17% | 10.3 µM [rising, single point] | 
16 | COc1ccccc1-c1nnn(C/C(N)=N/O)n1 | 63.2% | 0.731 µM [falling, full curve, poor fit] | 29.1 µM [rising, single point]
17 | COC(=O)C1=C(C)Nc2ccc(C)cc2S1 | 83.5% | 18.4 µM [rising, single point] | 2.31 µM [rising, full curve]
18 | CCOc1ccc(C(=O)NC2CCN(C(=O)N3CCCC3)CC2)cc1 |  | 6.51 µM [falling, single point] | 
19 | CCN(CC)C(=O)c1[nH]cnc1C(=O)Nc1ccc(OC)cc1 | 9.6% | 6.51 µM [rising, full curve, poor fit] | 
20 | COc1cccc(CNC(=O)CCS(=O)(=O)c2ccc3c(c2)CC(C)N3C(=O)C2CC2)c1 (stereo not given) | 21.7% | 29.1 µM [rising, single point] | 
21 | COc1ccc(S(=O)(=O)N2CCC(C(=O)NCCC(=O)NCc3cccc(OC)c3)CC2)cc1 | -10.2% | 0.58 µM [rising, single point] | 
22 | CC1CCCCC1NC(=O)c1cc2ccccc2o1 (stereo not given) | 14.1% | 16.4 µM [rising, partial curve] | 
23 | CN(C)C(=O)CN1CCN(Cc2nc(CC3CC3)no2)CC1 | -12.9% | 3.26 µM [falling, full curve] | 

Row | SMILES | cell number change | AC50 [1] | AC50 [2]
24 | Cc1ccc(-n2nc3c(=O)n(C(C)C(=O)NCc4ccc(Cl)cc4)nc(C)c3c2C)cc1 (stereo not given) | 8.73% | 6.51 µM [rising, single point] | 
25 | CC(=O)c1ccc(OC(=O)N2CCOCC2)cc1 | 0.88% |  | 
26 | CN(C)Cc1c(O)ccc2c3c(c(=O)oc12)CCCCC3 | -0.542% | 1.84 µM [falling, partial curve] | 
27 | CCCS(=O)(=O)N1CCCC(c2nc(-c3cccc(OC)c3)no2)C1 (stereo not given) | -30.1% |  | 11.6 µM [falling, partial curve]
28 | Cc1[nH]c(C(=O)O)c(C)c1C(=O)OC(C)C | -5.29% | 7.31 µM [falling, partial curve] | 
29 | C=CCn1c(SCC(=O)NNC(=O)Nc2cccc(Cl)c2)nnc1-c1ccccc1 | -0.258% |  | 
30 | CC(OC(=O)c1cc[n+]([O-])cc1)C(=O)Nc1ccc(Cl)cn1 (stereo not given) | -0.128% |  | 
31 | Cc1cnc(C(=O)OCC(=O)NC2CCCCCCC2)cn1 | -25.2% |  | 
32 | COC(=O)CSc1nc(C)cc(N2CCOCC2)n1 | -17.9% |  | 
33 | CN1c2ccsc2/C(=N/NC(=O)c2c(F)cccc2F)CS1(=O)=O | 22.1% |  | 
34 | CC1(C(=O)NC2CCCC2)CCC(=O)N1Cc1ccc2c(c1)OCO2 (stereo not given) | 19.1% | 16.4 µM [rising, single point] | 
35 | O=C(Nc1cccnc1)c1ccc(Cl)c([N+](=O)[O-])c1 | 19.9% |  | 
36 | O=C(COC(=O)Cc1ccc(Cl)cc1)NCc1ccc(F)cc1 | 16.1% |  | 
37 | Cc1ccc(C2/C(=C(/O)c3ccc(Br)cc3)C(=O)C(=O)N2Cc2ccco2)o1 (stereo not given) | -24.4% |  | 0.231 µM [falling, full curve, poor fit]
38 | Cc1ccccc1Nc1nc(N)nc(COC(=O)C2CCCCC2)n1 | 25.2% |  | 1.64 µM [rising, partial curve, poor fit]
39 | O=C(CNC(=O)c1nc[nH]c1C(=O)N1CCN(c2ccccc2)CC1)OCc1ccccc1 | 19.5% | 0.731 µM [falling, full curve] | 
40 | CCCCNC(=O)c1cc(-c2ccc(OC)cc2)on1 | -7.78% | 2.59 µM [rising, partial curve] | 
41 | Clc1ccc(Cn2ncc3c(NCCN4CCOCC4)ncnc32)cc1 | 11.8% | 16.4 µM [rising, single point] | 
42 | Clc1ccc(CSc2cc3c(nn2)-c2ccccc2CC3)cc1Cl | 58.3% | 29.1 µM [rising, single point] | 13 µM [rising, partial curve]
43 | O=C(c1cccs1)N1CCN(CCCc2ccccc2)CC1 | -0.533% |  | 
44 | CCOC(=O)N1CCN(C(=O)COC(=O)CN(C)S(=O)(=O)c2ccc(NC(C)=O)cc2)CC1 | 8.11% |  | 
45 | CCOc1ccccc1/C=N/NC(=O)CSc1n[nH]c(=O)[nH]c1=O | -26.2% | 0.291 µM [falling, partial curve, poor fit] | 
46 | Cc1cc(C(=O)Cn2nnc3ccccc3c2=O)c(C)n1Cc1cccs1 | -37.4% |  | 32.6 µM [falling, single point]

Quoted from the listing.
CN1c2ccsc2/C(=N/NC(=O)c2c(F)cccc2F)CS1(=O)=O – cell number change: 22.1%
CC1(C(=O)NC2CCCC2)CCC(=O)N1Cc1ccc2c(c1)OCO2 (stereo not given) – cell number change: 19.1%
Cc1[nH]c(C(=O)O)c(C)c1C(=O)OC(C)C – cell number change: -5.29%

(next part)

Row | SMILES | cell number change | AC50 [1] | AC50 [2]
47 | O=C(O)c1ccc(COc2ccc(Cl)cc2)o1 |  | 18.4 µM [falling, partial curve] | 
48 | O=C(NCCNC(=O)c1ccc(Br)o1)c1cccnc1 | 21.3% |  | 
49 | O=C(c1ccc(=O)[nH]n1)N1CCN(S(=O)(=O)c2ccc(C(F)(F)F)cc2)CC1 | 2.43% | 0.0291 µM [falling, full curve, poor fit] | 
50 | CC(=O)n1cc([C@@H]2C=C(C(=O)NCc3ccccc3)O[C@H](OCc3ccc(CO)cc3)C2)c2ccccc21 | -27.8% | 32.6 µM [falling, single point] | 
51 | Cc1ccccc1-c1nc(SCc2ccccn2)c2c(=O)n(C)c(=O)n(C)c2n1 | 2.77% |  | 
52 | COC(=O)C1CCN(C(=O)/C(C)=C\c2ccccc2)CC1 | -3.17% | 9.2 µM [falling, partial curve, poor fit] | 
53 | CCc1cc2c(-c3ccccc3)cc(=O)oc2cc1OC(C)C(C)=O (stereo not given) | -32.3% | 29.1 µM [falling, single point] | 18.4 µM [falling, partial curve, poor fit]
54 | COC(=O)c1sc(NC(=O)/C=C/c2ccc(C)o2)nc1C | 6.83% | 5.17 µM [falling, single point] | 
55 | CC(C)(C)NCC(O)(c1ccc(Cl)cc1)c1ccc(Cl)cc1 | 4.21% |  | 
56 | O=C(N/N=C/c1ccccc1Br)c1cccc(S(=O)(=O)N2CCOCC2)c1 | 15.8% | 0.58 µM [rising, partial curve, poor fit] | 
57 | O=C(Cn1nc(-c2ccc3c(c2)OCCO3)ccc1=O)Nc1cccc(NC(=O)c2ccccn2)c1 | -62.5% |  | 
58 | Clc1ccccc1-c1nnc(-c2cccnc2)o1 | 4.67% |  | 
59 | O=C(Nc1ccc(Cl)cc1)Nc1ccc(N2CCCC2)c(S(=O)(=O)Nc2ccccc2Cl)c1 | -26.2% | 29.1 µM [falling, single point] | 
60 | O=C1CCC([N+](=O)[O-])C(c2cccc(Br)c2)N1 (stereo not given) |  | 29.1 µM [falling, partial curve, poor fit] | 
61 | CN(C)c1ccc(NC(=O)CC2NCCNC2=O)cc1 (stereo not given) | -40.4% | 29.1 µM [falling, single point] | 29.1 µM [falling, single point]
62 | O=c1cc(O)nc(SCc2ccccc2Cl)[nH]1 | -2.01% | 20.6 µM [rising, single point] | 
63 | O=C(Nc1ccc(Cl)c([N+](=O)[O-])c1)ONC1=NCCCCC1 | 34.3% |  | 0.00651 µM [rising, full curve, poor fit]
64 | O=C(COc1cccc2ccccc12)N1CCN(c2ccccc2)CC1 | -0.933% | 0.116 µM [rising, full curve] | 
65 | CCc1nc(Nc2cc(OC)ccc2OC)c2oc3ccccc3c2n1 | -55.6% | 29.1 µM [falling, single point] | 4.61 µM [falling, single point]
66 | COC(=O)c1ccc(O)cc1 | -9.72% |  | 
67 | COc1cccc(C(=O)OC2CCN(C)CC2)c1 | -26.6% |  | 
68 | C/C(=N/NC(=O)c1ccco1)c1cccc(NC(=O)c2ccc(C)s2)c1 | 34.2% | 2.31 µM [rising, partial curve] | 2.91 µM [rising, full curve, poor fit]
